Assay results published in patent US4663438A, “Novel nucleic acid-containing glycoprotein” (Kureha Kagaku Kogyo Kabushiki Kaisha, priority 1981, dated 1987).
For at least one compound, name, drawing or mass did not settle the structure.

The compounds below were run on sarcoma-180 cells (assay: Inhibition by monosaccharide of agglutination of sarcoma-180 cells due to the present substance). Settings: monosaccharide 1.5 mg with present substance 3 mg.
Type: cell-based, mouse

Row | SMILES | Inhibitory activity to agglutination
1 | CO[C@H]1O[C@H](CO)[C@@H](O)[C@H](O)[C@H]1O [methyl α-glucoside] | -
2 | COC1OC(CO)C(O)C(O)C1O (stereo not drawn) [methyl α-mannoside] | +
3 | CC(=O)N[C@@H]1[C@@H](O)[C@H](O)[C@@H](CO)O[C@H]1O [N--acetylglucosamine] | ±
